Data source: PubChem BioAssay AID1259308 (NCATS, 2017)

Purpose: 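Genes whose loss raises luciferase production in HEK293 cells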 (primary screen)
Cells: human HEK293 embryonic kidney cells stably expressing firefly luciferase (HEK-CMV-Luc2-Hygro)
Reagent: single siRNA against human genes, 0.8 pmol siRNA per well
Duration: 72 h
Detection: 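Luciferase light (ONE-Glo) measured on one replicate plate set and viability (CellTiter-Glo) on the other, scaled to a negative control siRNA, with robust z-scores and luciferase per cell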
Reading the numbers: total luciferase, z-score and total luciferase, % of control: higher = more reporter protein produced; luciferase per cell, z-score: higher = more reporter output per viable cell; viable cells, % of control: higher = more viable cells
Call rule: 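An siRNA counts as active if its total luciferase robust z-score exceeds 3; genes with two or more such siRNAs out of three were retested with fresh siRNAs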
Calls: active = raised luciferase; inactive = no rise
Here is a random part of about 59,000 reagents. About 1,510 of all reagents (2.6%) count as active. 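Calls use total luciferase alone and ignore viability, so some active siRNAs may act by altering cell number.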 A number with no mark means an inactive call. Reagents against one gene are numbered here.

gene knocked down	reagent no.	total luciferase, z-score	total luciferase, % of control	luciferase per cell, z-score	viable cells, % of control
CD59	1	-0.179	78.3	-0.232	93
CD59	2	-1.03	61.4	-0.842	85.6
CD59	3	-2.19	38.3	-2.17	75.8
RELCH	1	-1.65	49.1	-2.53	107
RELCH	2	2.12	124	1.37	96.7
RELCH	3	-0.848	65	-0.962	93.6
ATP6V0E2	1	4.47 (active)	171	2.82	90.8
ATP6V0E2	2	-0.822	65.5	-0.504	83.6
ATP6V0E2	3	-2.44	33.3	-2.12	65.1
KPNA2P2	1	0.732	96.4	0.632	91.2
KPNA2P2	2	-0.786	66.2	-0.358	81.3
KPNA2P2	3	0.883	99.5	0.774	90.6
GARIN5B	1	1.8	118	1.89	79.9
GARIN5B	2	1.03	102	1.22	83
GARIN5B	3	-0.228	77.4	-0.0466	87.5
CEP85	1	-0.69	68.2	0.475	67.2
CEP85	2	0.48	91.4	0.228	96.2
CEP85	3	-1.17	58.7	-0.563	76
FZD2	1	0.237	86.6	0.444	86.1
FZD2	2	0.794	97.7	0.783	88.8
FZD2	3	-2.04	41.4	-2.34	85.7
IGFL2-AS1	1	-0.0774	80.3	0.358	81.7
IGFL2-AS1	2	2.29	127	3.07	63.5
IGFL2-AS1	3	-0.0589	80.7	-0.343	98.7
C2orf76	1	-0.867	64.6	-0.749	88
C2orf76	2	3.77 (active)	157	2.43	92.4
C2orf76	3	-0.803	65.9	-1.13	99.1
TSPAN5	1	-0.68	68.4	0.247	71.6
TSPAN5	2	0.318	88.2	1.13	73.2
TSPAN5	3	-0.949	63	-0.611	82.7
WDR31	1	-1.07	60.6	-0.674	80.9
WDR31	2	0.322	88.3	0.288	91.5
WDR31	3	-0.64	69.1	-0.808	95.6
KIAA1755	1	3.21 (active)	146	2.74	79.2
KIAA1755	2	-1.51	51.9	-1.32	82
KIAA1755	3	1.32	108	0.638	102
CAPS	1	-1.77	46.6	-2.33	96.4
CAPS	2	-1.95	43.1	-2.92	104
CAPS	3	-0.24	77.1	0.305	79.5
LINC01114	1	1.49	112	1.63	81.1
LINC01114	2	-0.756	66.9	-0.0557	75.8
LINC01114	3	-0.71	67.8	-0.707	91.2
PNMA6E	1	0.792	97.6	1.32	77.1
PNMA6E	2	0.855	98.9	0.698	92
PNMA6E	3	-0.0954	80	-0.201	94.2
CCL20	1	4.11 (active)	164	2.24	101
CCL20	2	0.152	84.9	-0.328	103
CCL20	3	0.29	87.7	0.12	94.9
POLR2M	1	0.11	84.1	-0.202	99.1
POLR2M	2	0.868	99.2	0.718	91.7
POLR2M	3	2.01	122	1.48	92.2
CTNNAL1	1	-1.82	45.6	-2.16	90
CTNNAL1	2	1.2	106	0.497	104
CTNNAL1	3	1.9	120	0.678	112
STARD3	1	0.327	88.4	-0.225	105
STARD3	2	-0.541	71.1	0.0788	77.9
STARD3	3	0.334	88.5	0.956	76.9

3 entries from above, showing only “total luciferase, z-score”:
KPNA2P2 #1	0.732
KPNA2P2 #2	-0.786
KPNA2P2 #3	0.883
